According to paper PMC5077174, “Analysis of the Physiological Activities of Scd6 through Its Interaction with Hmt1” (PLoS ONE, 2016):
Results are given in words; binding and its absence hold for the method and conditions named. For some assays here: Binding seen in cells or lysates may run through a third protein. Some binding calls cover weakened binding; strength is not graded here. For some assays here: Sequences can lack the tags named with a protein.

T1: GBD-Scd6 (S. cerevisiae) (UniProt P45978)
T1 sequence: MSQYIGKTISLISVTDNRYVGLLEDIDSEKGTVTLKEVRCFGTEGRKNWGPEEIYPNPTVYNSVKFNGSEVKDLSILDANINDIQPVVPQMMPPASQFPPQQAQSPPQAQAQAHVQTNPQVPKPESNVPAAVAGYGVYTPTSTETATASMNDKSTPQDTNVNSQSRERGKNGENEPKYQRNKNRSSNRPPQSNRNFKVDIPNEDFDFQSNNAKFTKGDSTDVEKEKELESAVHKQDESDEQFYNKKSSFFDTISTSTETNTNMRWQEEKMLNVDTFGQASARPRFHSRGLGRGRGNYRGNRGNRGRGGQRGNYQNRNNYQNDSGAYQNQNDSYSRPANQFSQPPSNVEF

T2: Scd6Flag (S. cerevisiae) (UniProt P45978)
T2 sequence: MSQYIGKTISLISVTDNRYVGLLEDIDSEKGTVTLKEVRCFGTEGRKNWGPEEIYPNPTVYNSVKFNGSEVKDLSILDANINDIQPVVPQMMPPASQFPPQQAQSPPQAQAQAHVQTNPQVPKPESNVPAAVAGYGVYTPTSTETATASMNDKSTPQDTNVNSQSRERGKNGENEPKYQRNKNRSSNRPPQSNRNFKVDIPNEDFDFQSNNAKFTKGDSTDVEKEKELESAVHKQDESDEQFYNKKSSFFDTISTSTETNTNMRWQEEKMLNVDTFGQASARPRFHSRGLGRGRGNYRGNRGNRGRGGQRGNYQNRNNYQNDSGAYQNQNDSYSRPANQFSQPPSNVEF


How the values were obtained:
GBD-Scd6 (S. cerevisiae) = molecular target: T1, GBD-Scd6 (S. cerevisiae); assay: two-hybrid; directed test: PJ69-4A co-transformed with pGBD-c1-Scd6 and pGAD-c1-Hmt1; spotted on SC-Leu-Trp, SC-Leu-Trp-His and SC-Leu-Trp-His with 1 mM 3-AT, 3 days at 30°C
Scd6Flag (S. cerevisiae) = molecular target: T2, Scd6Flag (S. cerevisiae); assay: co-IP; Scd6Flag immunoprecipitated with anti-Flag antibody on protein G-Sepharose from extracts of the Hmt1myc strain in XT buffer (50 mM HEPES-KOH pH 7.3, 20 mM potassium acetate, 2 mM EDTA, 0.1% Triton X-100, 5% glycerol), 30 min at 4°C; extracts with or without 200 μg/mL RNase A; blot with anti-myc

| binding (GBD-Scd6 (S. cerevisiae)) | binding (Scd6Flag (S. cerevisiae)) | Binder |
| --- | --- | --- |
| binds |  | GAD-Hmt1 (protein, UniProt P38074 1-348) MSKTAVKDSATEKTKLSESEQHYFNSYDHYGIHEEMLQDTVRTLSYRNAIIQNKDLFKDKIVLDVGCGTGILSMFAAKHGAKHVIGVDMSSIIEMAKELVELNGFSDKITLLRGKLEDVHLPFPKVDIIISEWMGYFLLYESMMDTVLYARDHYLVEGGLIFPDKCSIHLAGLEDSQYKDEKLNYWQDVYGFDYSPFVPLVLHEPIVDTVERNNVNTTSDKLIEFDLNTVKISDLAFKSNFKLTAKRQDMINGIVTWFDIVFPAPKGKRPVEFSTGPHAPYTHWKQTIFYFPDDLDAETGDTIEGELVCSPNEKNNRDLNIKISYKFESNGIDGNSRSRKNEGSYLMH |
|  | binds | Hmt1myc (protein, UniProt P38074 1-348) MSKTAVKDSATEKTKLSESEQHYFNSYDHYGIHEEMLQDTVRTLSYRNAIIQNKDLFKDKIVLDVGCGTGILSMFAAKHGAKHVIGVDMSSIIEMAKELVELNGFSDKITLLRGKLEDVHLPFPKVDIIISEWMGYFLLYESMMDTVLYARDHYLVEGGLIFPDKCSIHLAGLEDSQYKDEKLNYWQDVYGFDYSPFVPLVLHEPIVDTVERNNVNTTSDKLIEFDLNTVKISDLAFKSNFKLTAKRQDMINGIVTWFDIVFPAPKGKRPVEFSTGPHAPYTHWKQTIFYFPDDLDAETGDTIEGELVCSPNEKNNRDLNIKISYKFESNGIDGNSRSRKNEGSYLMH |
